Measurements taken from patent US20070249630A1, “Phenethanolamine derivatives for treatment of respiratory diseases” (GLAXO GROUP LIMITED, priority 2002, published 2007).
Counter-ions that a name gives are not always drawn. Some results were stated once for a whole list of compounds, not compound by compound.

Sequences of proteins named here, by UniProt entry; tags and fusion partners are left off.
UniProt P07550, whole entry: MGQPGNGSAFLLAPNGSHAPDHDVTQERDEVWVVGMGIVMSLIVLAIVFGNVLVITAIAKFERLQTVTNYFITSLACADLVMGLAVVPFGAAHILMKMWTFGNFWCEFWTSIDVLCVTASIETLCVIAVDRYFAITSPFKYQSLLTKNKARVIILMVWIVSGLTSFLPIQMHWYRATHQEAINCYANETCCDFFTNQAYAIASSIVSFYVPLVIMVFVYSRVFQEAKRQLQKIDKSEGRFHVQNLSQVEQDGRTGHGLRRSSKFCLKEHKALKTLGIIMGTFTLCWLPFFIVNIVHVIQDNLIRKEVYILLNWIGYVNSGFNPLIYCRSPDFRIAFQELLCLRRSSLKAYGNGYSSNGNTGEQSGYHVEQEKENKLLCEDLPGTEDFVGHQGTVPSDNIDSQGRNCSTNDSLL

Target: T1, human beta 2 adrenoreceptor (Homo sapiens, UniProt P07550)
T1 construct: expressed in transfected cells; host or cells: frog melanophores
Experiment: Frog melanophores transfected with the human beta 2 adrenoreceptor; pigment dispersal (light transmittance)
Assay type: cell-based
Conditions: frog melanophores transfected with human beta 2 adrenoreceptor, melatonin-induced pigment aggregation; read-out: IC50 at the human beta 2 adrenoreceptor (beta 2 agonist activity)

IC50, < 1000 nM:
CCNC(=O)Nc1ccc(CCCCOCCCCCCNC[C@H](O)c2ccc(O)c(CO)c2)cc1 [Example 12, N-Ethyl-N′-[4-(4-{[6-({(2R)-2-hydroxy-2-[4-hydroxy-3-(hydroxymethyl)phenyl]ethyl}amino)hexyl]oxy}butyl)phenyl]urea acetate]
O=C(O)CNC(=O)NCc1ccccc1CCCCOCCCCCCNC[C@H](O)c1ccc(O)c(CO)c1 [Example 22, N-({[2-(4-{[6-({(2R)-2-Hydroxy-2-[4-hydroxy-3-(hydroxymethyl)phenyl]ethyl}amino)hexyl]oxy}butyl)benzyl]amino}carbonyl)glycine acetate]
NC(=O)Nc1cccc(CCCCOCCCCCCNC[C@H](O)c2ccc(O)c(CO)c2)c1 [Example 24, N-[3-(4-{[6-({(2R)-2-Hydroxy-2-[4-hydroxy-3-(hydroxymethyl)phenyl]ethyl}amino)hexyl]oxy}butyl)phenyl]urea acetate]
O=C(Nc1cccc(O)c1)Nc1cccc(CCCCOCCCCCCNC[C@H](O)c2ccc(O)c(CO)c2)c1 [Example 33, N-[3-(4-{[6-({(2R)-2-Hydroxy-2-[4-hydroxy-3-(hydroxymethyl)phenyl]ethyl}amino)hexyl]oxy}butyl)phenyl]-N′-(3-hydroxyphenyl)urea]
O=C(Nc1ccccc1)Nc1ccccc1CCCCOCCCCCCNC[C@H](O)c1ccc(O)c(CO)c1 [Example 32, N-[2-(4-{[6-({(2R)-2-Hydroxy-2-[4-hydroxy-3-(hydroxymethyl)phenyl]ethyl}amino)hexyl]oxy}butyl)phenyl]-N′-phenylurea acetate]
NC(=O)Nc1cccc(CCCCCOCCCCCCNC[C@H](O)c2ccc(O)c(CO)c2)c1 [Example 27, N-[3-(5-{[6-({(2R)-2-Hydroxy-2-[4-hydroxy-3-(hydroxymethyl)phenyl]ethyl}amino)hexyl]oxy}pentyl)phenyl]urea acetate]
O=C(Nc1ccccc1)Nc1ccc(CCCCOCCCCCCNC[C@H](O)c2ccc(O)c(CO)c2)cc1 [Example 11, N-[4-(4-{[6-({(2R)-2-Hydroxy-2-[4-hydroxy-3-(hydroxymethyl)phenyl]ethyl}amino)hexyl]oxy}butyl)phenyl]-N′-phenylurea acetate]
O=C(NCc1cccc(CCCCOCCCCCCNC[C@H](O)c2ccc(O)c(CO)c2)c1)Nc1ccc(F)cc1 [Example 19, N-(4-Fluorophenyl)-N′-[3-(4-{[6-({(2R)-2-hydroxy-2-[4-hydroxy-3-(hydroxymethyl)phenyl]ethyl}amino)hexyl]oxy}butyl)benzyl]urea acetate]
NC(=O)NCc1cccc(CCCCOCCCCCCNC[C@H](O)c2ccc(O)c(CO)c2)c1 [Example 18, N-[3-(4-{[6-({(2R)-2-Hydroxy-2-[4-hydroxy-3-(hydroxymethyl)phenyl]ethyl}amino)hexyl]oxy}butyl)benzyl]urea acetate]
O=C(Nc1ccccc1)Nc1cccc(CCCCOCCCCCCNC[C@H](O)c2ccc(O)c(CO)c2)c1 [Example 7, 3-(4-{[6-({(2R)-2-Hydroxy-2-[4-hydroxy-3-(hydroxymethyl)phenyl]ethyl}-amino)hexyl]oxy}butyl)phenyl)-N′-phenylurea acetate]
CCOC(=O)CNC(=O)Nc1cccc(CCCCOCCCCCCNC[C@H](O)c2ccc(O)c(CO)c2)c1 [Example 9, Ethyl({[3-(4-{[6-({(2R)-2-hydroxy-2-[4-hydroxy-3-(hydroxymethyl)phenyl]ethyl}-amino)hexyl]oxy}butyl)anilino]carbonyl}amino)acetate acetate]
O=C(Nc1ccc(F)cc1)Nc1cccc(CCCCOCCCCCCNC[C@H](O)c2ccc(O)c(CO)c2)c1 [Example 1, N-(4-Fluorophenyl)-N′-[3-(4-{[6-({(2R)-2-hydroxy-2-[4-hydroxy-3-(hydroxymethyl)phenyl]ethyl}amino)hexyl]oxy}butyl)phenyl]urea acetate]
Cc1cccc(C)c1NC(=O)Nc1cccc(CCCCOCCCCCCNC[C@H](O)c2ccc(O)c(CO)c2)c1 [Example 6, N-(2,6-Dimethylphenyl)-N′-[3-(4-{[6-({(2R)-2-hydroxy-2-[4-hydroxy-3-(hydroxymethyl)phenyl]ethyl}amino)hexyl]oxy}butyl)phenyl]urea acetate]
O=C(Nc1cccc(CCCCOCCCCCCNC[C@H](O)c2ccc(O)c(CO)c2)c1)Nc1cccc(C(F)(F)F)c1 [Example 5, N-[3-(4-{[6-({(2R)-2-Hydroxy-2-[4-hydroxy-3-(hydroxymethyl)phenyl]ethyl}-amino)hexyl]oxy}butyl)phenyl]-N′-[3-(trifluoromethyl)phenyl]urea acetate]
NC(=O)Nc1cccc(CCCOCCCCCCCNC[C@H](O)c2ccc(O)c(CO)c2)c1 [Example 25, N-[3-(3-{[7-({(2R)-2-Hydroxy-2-[4-hydroxy-3-(hydroxymethyl)phenyl]ethyl}amino)heptyl]oxy}propyl)phenyl]urea acetate]
C[C@@H](C(=O)O)N(C(N)=O)c1cccc(CCCCOCCCCCCNC[C@H](O)c2ccc(O)c(CO)c2)c1 [Example 37, N-(Aminocarbonyl)-N-[3-(4-{[6-({(2R)-2-hydroxy-2-[4-hydroxy-3-(hydroxymethyl)phenyl]ethyl}amino)hexyl]oxy}butyl)phenyl]- -alanine formate]
O=C(CNC(=O)Nc1cccc(CCCCOCCCCCCNC[C@H](O)c2ccc(O)c(CO)c2)c1)NC1CCCC1 [Example 36, N^1-Cyclopentyl-N^2-({[3-(4-{[6-({(2R)-2-hydroxy-2-[4-hydroxy-3-(hydroxymethyl)phenyl]ethyl}amino)hexyl]oxy}butyl)phenyl]amino}carbonyl)glycinamide acetate]
O=C(Nc1cccc(CCCCOCCCCCCNC[C@H](O)c2ccc(O)c(CO)c2)c1)Nc1c(Cl)cccc1Cl [Example 2, N-(2,6-Dichlorophenyl)-N′-[3-(4-{[6-({(2R)-2-hydroxy-2-[4-hydroxy-3-(hydroxymethyl)phenyl]ethyl}amino)hexyl]oxy}butyl)phenyl}urea acetate]
O=C(Nc1cccc(CCCCOCCCCCCNC[C@H](O)c2ccc(O)c(CO)c2)c1)Nc1cc(C(F)(F)F)cc(C(F)(F)F)c1 [Example 15, N-[3,5-Bis(trifluoromethyl)phenyl]-N′-[3-(4-{[6-({(2R)-2-hydroxy-2-[4-hydroxy-3-(hydroxymethyl)phenyl]ethyl}amino)hexyl]oxy}butyl)phenyl]urea acetate]
O=C(Nc1cccc(CCCCOCCCCCCNC[C@H](O)c2ccc(O)c(CO)c2)c1)Nc1ccncn1 [Example 14, N-[3-(4-{[6-({(2R)-2-Hydroxy-2-[4-hydroxy-3-(hydroxymethyl)phenyl]ethyl}amino)hexyl]oxy}butyl)phenyl]-N′-pyrimidin-4-ylurea]
NC(=O)CNC(=O)Nc1cccc(CCCCOCCCCCCNC[C@H](O)c2ccc(O)c(CO)c2)c1 [Example 35, N^2-({[3-(4-{[6-({(2R)-2-Hydroxy-2-[4-hydroxy-3-(hydroxymethyl)phenyl]ethyl}amino)hexyl]oxy}butyl)phenyl]amino}carbonyl)glycinamide formate]
O=C(NCc1ccccc1)NCc1cccc(CCCCOCCCCCCNC[C@H](O)c2ccc(O)c(CO)c2)c1 [Example 21, N-Benzyl-N′-[3-(4-{[6-({(2R)-2-hydroxy-2-[4-hydroxy-3-(hydroxymethyl)phenyl]ethyl}amino)hexyl]oxy}butyl)benzyl]urea acetate]
O=C(NCc1cccc(CCCCOCCCCCCNC[C@H](O)c2ccc(O)c(CO)c2)c1)Nc1cccc(Cl)c1 [Example 20, N-(3-Chlorophenyl)-N′-[3-(4-{[6-({(2R)-2-hydroxy-2-[4-hydroxy-3-(hydroxymethyl)phenyl]ethyl}amino)hexyl]oxy}butyl)benzyl]urea acetate]
O=C(O)CNC(=O)Nc1cccc(CCCCOCCCCCCNC[C@H](O)c2ccc(O)c(CO)c2)c1 [Example 4, ({[3-(4-{[6-({(2R)-2-Hydroxy-2-[4-hydroxy-3-(hydroxymethyl)phenyl]ethyl}-amino)hexyl]oxy}butyl)anilino]carbonyl}amino)acetic acid acetate]
O=C(Nc1cccc(CCCCOCCCCCCNC[C@H](O)c2ccc(O)c(CO)c2)c1)NC1CCCCC1 [Example 10, N-Cyclohexyl-N′-(3-(4-{[6-({(2R)-2-hydroxy-2-[4-hydroxy-3-(hydroxymethyl)phenyl]ethyl}amino)hexyl]oxy}butyl)phenyl)urea acetate]
CCNC(=O)Nc1cccc(CCCCOCCCCCCNC[C@H](O)c2ccc(O)c(CO)c2)c1 [Example 8, N-Ethyl-N′-[3-(4-{[6-({(2R)-2-hydroxy-2-[4-hydroxy-3-(hydroxymethyl)phenyl]ethyl}amino)hexyl]oxy}butyl)phenyl)urea acetate]
O=C(NCCc1cccc(CCCCOCCCCCCNC[C@H](O)c2ccc(O)c(CO)c2)c1)Nc1ccccc1 [Example 23, N-{2-[3-(4-{[6-({(2R)-2-Hydroxy-2-[4-hydroxy-3-(hydroxymethyl)phenyl]ethyl}amino)hexyl]oxy}butyl)phenyl]ethyl}-N′-phenylurea acetate]
O=C(NC(=O)c1ccccc1)Nc1cccc(CCCCOCCCCCCNC[C@H](O)c2ccc(O)c(CO)c2)c1 [Example 31, N-Benzoyl-N′-[3-(4-{[6-({(2R)-2-hydroxy-2-[4-hydroxy-3-(hydroxymethyl)phenyl]ethyl}amino)hexyl]oxy}butyl)phenyl]urea]
O=c1[nH]c2ccc(CCCCOCCCCCCNC[C@H](O)c3ccc(O)c(CO)c3)cc2[nH]1 [Example 30, 5-(4-{[6-({(2R)-2-Hydroxy-2-[4-hydroxy-3-(hydroxymethyl)phenyl]ethyl}amino)hexyl]oxy}butyl)-1,3-dihydro-2H-benzimidazol-2-one acetate]
Cc1cc(CCCCOCCCCCCNC[C@H](O)c2ccc(O)c(CO)c2)cc(NC(N)=O)c1 [Example 29, N-[3-(4-{[6-({(2R)-2-Hydroxy-2-[4-hydroxy-3-(hydroxymethyl)phenyl]ethyl}amino)hexyl]oxy}butyl)-5-methylphenyl]urea acetate]
